Measurements: US5750141A, “Administration of vaso-active agent and therapeutic agent” (The University of Queensland, priority 1993, dated 1998)

Legend:
[1] = coiontophoresis with norepinephrine; up to a depth of 3 mm; cited from earlier work
[2] = presence of phenylephrine, subcutaneous administration in rats; cited from earlier work
[3] = assay type: in vivo, rat (male Wistar); details: in the presence of phenylephrine

CCN(CC)CC(=O)Nc1c(C)cccc1C [Lidocaine]
Local concentrations of lidocaine in the skin [1]: increased local concentrations
Plasma levels of lidocaine [2]: decrease in the plasma levels
Concentration in plasma and contralateral tissues [3]: decreased
Concentration in tissues below the application area ([3]; FIGS. 3 & 4): increased
